No constants are given. Whether binding was seen depends on the method and setting. Some binding calls cover weakened binding; strength is not graded here. Tags and fused reporters may be left off the sequences shown.
How the values were obtained:
[1] = target: T1, recombinant human CD73 protein with C-terminal 6xHis tag (human) (UniProt P21589); experiment: SPR, Biacore T200
T1 sequence: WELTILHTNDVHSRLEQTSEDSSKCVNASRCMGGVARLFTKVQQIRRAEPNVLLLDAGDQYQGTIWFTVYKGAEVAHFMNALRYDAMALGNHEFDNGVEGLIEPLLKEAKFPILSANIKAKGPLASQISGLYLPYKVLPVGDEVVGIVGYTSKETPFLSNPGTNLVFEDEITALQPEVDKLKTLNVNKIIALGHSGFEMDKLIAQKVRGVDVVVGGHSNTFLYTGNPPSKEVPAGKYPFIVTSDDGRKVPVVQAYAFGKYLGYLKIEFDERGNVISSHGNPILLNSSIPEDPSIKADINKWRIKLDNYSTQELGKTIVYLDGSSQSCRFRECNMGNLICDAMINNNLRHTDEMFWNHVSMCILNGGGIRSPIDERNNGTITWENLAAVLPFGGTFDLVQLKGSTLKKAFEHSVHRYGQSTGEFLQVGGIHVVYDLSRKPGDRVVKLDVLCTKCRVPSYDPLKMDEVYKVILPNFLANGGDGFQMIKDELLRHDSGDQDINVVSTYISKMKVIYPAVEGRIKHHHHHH

[2] = target: T1, recombinant human CD73 protein with C-terminal 6xHis tag (human); experiment: affinity test (summary in embodiment 1)

B1: anti-human CD73 monoclonal antibody 7-C10-Ba-C2 (antibody, V domains shown)
VH: EVQLQQSGPELVKPGASMKISCKASGYSFTGYTMNWVKQSHGKNLEWIGFITPYNGDTIYNQKFKGKATVTVDKSSSTAYMDLLSLTSEDSAVYYCAREGYDGGYFDYWGQGTTLTVSS
VL: DIQMTQSPASLSASVGETVTITCRASENIYSYLAWYQQKQGKSPQLLVYNTQTLAEGVPSRFSGSGSGTQFSLKINSLQPEDFGSYYCQHHYGTPMYPFGGGTKLEIK
notes: Mouse (BABL/c) hybridoma antibody purified from ascitic fluid; also called antibody of the present invention
- binding [1]: binds
- binding [2]: binds
